Out of some 300,000 compounds screened, about 3,700 (1.2%) were called active. Inconclusive results, whose numbers are uncertain, are shown with a selection of clear calls. Calls come from the whole dose curve; tested in HEK293 cells. Potencies of inconclusive entries are doubtful fits and often do not repeat.
Assay: qHTS for Inhibitors of binding or entry into cells for Lassa Virus; note: nearly all actives have a fitted effect of over 50% in size
Details: Lassa virus pseudotype entry inhibition, cell reporter; activity change, negative = inhibition: at 37.9 µM (top of the series) unless noted
In the case of `Cc1ccc(-c2csc3nc[nH]c(=O)c23)cc1`, the Potency is reported as inconclusive: 3.98 µM [inhibitor, partial curve, poor fit]. For `CN(C)S(=O)(=O)c1cc(NC(=O)CN2CCN(c3ccccc3O)CC2)ccc1Cl`, the Potency was active: 0.562 µM. In the case of `CCC(=O)c1cn(CC(=O)Nc2ccc(C)cc2C)c2ccccc12`, the “activity change, negative = inhibition” value is reported as inactive: -6.86%. In the case of `COc1cc(C(=O)N/N=C/c2cc([N+](=O)[O-])cs2)cc(OC)c1OC`, the Potency is reported as inconclusive: 11.6 µM [inhibitor, partial curve, poor fit]. For `CN(Cc1ccccc1)S(=O)(=O)c1ccc2[nH]cc(C(=O)NCC3CCCO3)c(=O)c2c1` (configuration not stated), the “activity change, negative = inhibition” value was inactive: -18.6% [at 14.3 µM]. With `Cc1cccc(NC(=O)c2cccc(NC(=O)c3ccccc3)c2)n1` the “activity change, negative = inhibition” value was inactive: 2.25% [at 46.1 µM]. With `Cc1ccc(C)c(OCCCC(=O)N2CCOCC2)c1` the “activity change, negative = inhibition” value was inactive: 2.43%. In the case of `C=C1CC(Cn2cc(Br)c(=O)[nH]c2=O)(c2ccc(-c3ccccc3)cc2)OC1=O` (configuration not stated), the Potency is reported as inconclusive: 2.24 µM [inhibitor, full curve]. In the case of `Nc1c(C(=O)N2CCOCC2)sc2nc3c(cc12)CCCC3`, the Potency is reported as inconclusive: 10 µM [inhibitor, partial curve, poor fit]. With `Cc1ccc(NC(=O)N(C2=NCC(C)S2)c2ccccc2)cc1` (configuration not stated) the “activity change, negative = inhibition” value was inactive: 3.02%. With `COc1ccc(NC(=O)CNC(=O)Cn2ccc3ccccc3c2=O)c(OC)c1` the Potency was inconclusive: 7.08 µM [activator, partial curve, poor fit]. For `CC(Oc1ccc(Br)cc1)C(=O)Nc1ccc(N2CCOCC2)cc1N1CCOCC1` (configuration not stated), the “activity change, negative = inhibition” value was inactive: -20%. For `CC1CC[C@@]2(OC1)O[C@H]1CC3[C@@H]4C[C@@H](O)[C@@]5(O)C[C@@H](O)[C@H](O)C[C@]5(C)[C@H]4CC[C@]3(C)[C@H]1[C@@H]2C` (some centres not stated), the Potency was inconclusive: 11.2 µM [activator, partial curve]. In the case of `COc1ccc(C(=O)Nc2ccccc2)cc1NC(=O)c1ccc([N+](=O)[O-])cc1`, the Potency is reported as inconclusive: 7.94 µM [inhibitor, full curve, poor fit]. With `N#CC(C#N)=C1C=CC=CN1/C(=C\c1ccco1)C(=O)c1ccc(Cl)cc1` the Potency was inconclusive: 6.31 µM [inhibitor, partial curve, poor fit]. With `CCOc1ccc(C2C=C(c3ccc(F)cc3)Nc3ncnn32)cc1` (configuration not stated) the Potency was inconclusive: 4.47 µM [activator, partial curve, poor fit]. With `COc1ccc([N+](=O)[O-])cc1-n1cnnn1` the Potency was inconclusive: 0.891 µM [activator, full curve, poor fit]. For `CC1CN(C(=O)c2ccc(CNS(=O)(=O)c3cccc(C(F)(F)F)c3)cc2)CC(C)O1` (configuration not stated), the “activity change, negative = inhibition” value was inactive: -30.1%. In the case of `CCCCCOc1ccc(NC(=O)C(=O)NCCC2=CCCCC2)cc1`, the “activity change, negative = inhibition” value is reported as inactive: 10%. With `Cc1cc(C)n2nc(SCC(=O)N3CCN(c4ccccc4)CC3)nc2n1` the Potency was inconclusive: 6.31 µM [inhibitor, single point]. In the case of `COc1cccc(NC(=O)C2CCN(Cc3cnn(-c4ccccc4)c3-n3cccc3)CC2)c1`, the Potency is reported as inconclusive: 16.4 µM [inhibitor, single point]. For `CC(=O)OC1CCC2(C)C(COc3ccc4ccc(=O)oc4c3)C(C)(O)CCC2C1(C)C` (configuration not stated), the Potency was inconclusive: 35.5 µM [inhibitor, single point]. With `N#CCCN1CCN(C(=S)c2ccc(-c3ccc(Cl)c(Cl)c3)o2)CC1` the Potency was active: 20 µM. For `COc1ccc(-c2nc(-c3ccccc3)c(-c3cccs3)[nH]2)cc1OC`, the Potency was inconclusive: 4.61 µM [inhibitor, full curve]. In the case of `CCc1ccc(C2=CC(c3cccc(OC)c3OC)n3c(nc4ccccc43)N2)cc1` (configuration not stated), the activity change, negative = inhibition is reported as inconclusive: 3.88% [activator] [at 46.1 µM]. For `COc1ccc(Cl)cc1/C=C1/C(=O)ON=C1C`, the Potency was inconclusive: 12.6 µM [activator, single point]. With `N#Cc1nc(COc2ccc(F)cc2)oc1N1CCCC1` the Potency was inconclusive: 1.26 µM [inhibitor, single point]. In the case of `COc1ccc(/C=C2\SC(=O)N(CCCC(=O)Nc3cc(Cl)ccc3C(=O)O)C2=O)cc1`, the Potency is reported as active: 0.398 µM. In the case of `CCOc1ccc2nc(N/C(N)=N/C(=S)Nc3cccc(C)c3)nc(C)c2c1`, the “activity change, negative = inhibition” value is reported as inactive: 1.48%. With `O=C(NC(=S)Nc1ccccc1N1CCOCC1)c1ccc(-c2cccc(Cl)c2)o1` the “activity change, negative = inhibition” value was inactive: 18.9%. In the case of `Oc1ccccc1-c1nc(NCc2ccco2)c2ccccc2n1`, the “activity change, negative = inhibition” value is reported as inactive: 2.41%. In the case of `CCc1ccc(NC(=O)C2CCN(c3ccc(Sc4ccc(C)cc4)nn3)CC2)cc1`, the “activity change, negative = inhibition” value is reported as inactive: 4.38% [at 46.1 µM]. For `COc1cc(/C=C/C(=O)NC(C)(C)C)ccc1OCc1ccccc1`, the Potency was inconclusive: 18.4 µM [inhibitor, single point]. With `Cc1cc(C)c2c(NC(=O)c3ccccc3Cl)c(C(=O)Nc3ccc(C)c(C)c3)sc2n1` the “activity change, negative = inhibition” value was inactive: 1.76% [at 46.1 µM]. For `COc1ccc(C(=S)N2CCN(c3ccccc3C)CC2)cc1OC`, the Potency was inconclusive: 28.2 µM [inhibitor, single point]. For `CCN(CC)CC(=O)Nc1ccc(-c2ccc(NC(=O)CN(CC)CC)c(OC)c2)cc1OC`, the “activity change, negative = inhibition” value was inactive: 4.82%. With `CC(C)CON=C1C[C@@H](O)[C@@H](O)[C@@H]2[C@H]3C(=O)N(C4CCCCC4)C(=O)[C@@H]3CC[C@H]12` the Potency was inconclusive: 6.68 µM [activator, single point]. For `O=C(C[n+]1cccc(CNC(=O)c2ccc(OC(F)F)cc2)c1)c1ccccc1`, the “activity change, negative = inhibition” value was inactive: -7.74%. In the case of `O=C(Nc1cccc(S(=O)(=O)N2CCCCCC2)c1)C1CCN(C(=O)c2ccc(Cl)cc2)CC1`, the Potency is reported as inconclusive: 12.6 µM [inhibitor, partial curve, poor fit]. For `COCc1cc(C)nc(OCC(=O)N/N=C\c2cc(C)n(-c3cccc(C(F)(F)F)c3)c2C)c1C#N`, the “activity change, negative = inhibition” value was inactive: -15.2%. For `O=S(=O)(NCC1CCCO1)c1ccc(-c2ccc(Cl)cc2)cc1` (configuration not stated), the Potency was inconclusive: 6.31 µM [inhibitor, partial curve, poor fit]. With `CCCNC(=O)c1ccccc1NC(=O)c1ccc2c(=O)n3c(nc2c1)CCC3` the Potency was inconclusive: 3.16 µM [activator, partial curve, poor fit]. For `CC1C(=O)N(Cc2cn(CC3CCCCC3)nn2)CCS(=O)(=O)N1Cc1ccc(-c2cccc(CO)c2)cc1` (configuration not stated), the Potency was inconclusive: 6.28 µM [inhibitor, partial curve, poor fit]. In the case of `COc1ccc(CN(C)C(=O)c2cc(S(=O)(=O)Nc3ccccc3F)ccc2C)c(OC)c1`, the Potency is reported as inconclusive: 3.16 µM [inhibitor, single point]. In the case of `CCOC(=O)Cc1csc(NC(=O)Nc2ccc(C)cc2)n1`, the Potency is reported as inconclusive: 12.6 µM [inhibitor, partial curve, poor fit]. In the case of `O=C(COc1ccccc1)N1CCc2ccccc2C1`, the Potency is reported as inconclusive: 31.6 µM [activator, single point]. In the case of `CCCCN(CC)Cc1ccc(CNC(=O)Nc2ccc(Cl)cc2)o1`, the Potency is reported as inconclusive: 28.2 µM [inhibitor, single point]. For `O=C(CCNS(=O)(=O)c1ccccc1C(F)(F)F)N1CCN(C(c2ccccc2)c2ccccc2)CC1`, the Potency was inconclusive: 11.2 µM [inhibitor, partial curve]. In the case of `Cc1ccccc1C(=O)Nc1nnc(SCC(=O)NC2CC2)s1`, the Potency is reported as inconclusive: 11.2 µM [inhibitor, single point]. For `CC(C)COc1cccc(C(=O)Nc2cc(S(=O)(=O)N3CCOCC3)ccc2N2CCCC2)c1`, the Potency was inconclusive: 22.4 µM [inhibitor, single point]. For `COc1ccc(-c2cc(C(F)(F)F)nc(SCC(=O)NCc3ccco3)n2)cc1OC`, the Potency was inconclusive: 0.794 µM [inhibitor, full curve, poor fit]. For `COc1cc(/C=N/O)cc(Br)c1OCc1ccc(Cl)cc1`, the Potency was inconclusive: 35.5 µM [inhibitor, partial curve, poor fit]. For `Cc1ccc(S(=O)(=O)NCC(=O)NCC(=O)OCc2c(F)cccc2Cl)cc1`, the “activity change, negative = inhibition” value was inactive: 26% [at 46.1 µM]. With `O=S(=O)(c1ccc(Br)cc1)c1cnc2ccccc2n1` the Potency was inconclusive: 1.41 µM [inhibitor, partial curve, poor fit]. For `c1ccc2c(c1)[nH]c1c(N3CCSCC3)ncnc12`, the “activity change, negative = inhibition” value was inactive: 6.27%. For `CN1CCN(C(c2cccc(C(F)(F)F)c2)c2nnnn2Cc2ccccc2)CC1` (configuration not stated), the Potency was inconclusive: 29.1 µM [inhibitor, single point]. In the case of `O=C1CSC(c2ccccn2)N1c1ccccc1F` (configuration not stated), the Potency is reported as inconclusive: 35.5 µM [activator, single point]. In the case of `COc1ccc(N2CCN(C(=O)c3c(C)oc4ncn(CC(C)C)c(=O)c34)CC2)cc1`, the “activity change, negative = inhibition” value is reported as inactive: 0.0495% [at 46.1 µM]. With `COc1cccc(C(C(=O)NC2CCCCC2)N(C(=O)CNC(=O)c2ccco2)c2cccnc2)c1` (configuration not stated) the Potency was inconclusive: 2.51 µM [inhibitor, partial curve, poor fit]. For `COCCNC(=O)c1ccc2snnc2c1`, the Potency was inconclusive: 10.3 µM [activator, partial curve, poor fit]. In the case of `Cc1ccc(S(=O)(=O)N(OCc2ccccc2)C(C)C(=O)O)cc1` (configuration not stated), the Potency is reported as inconclusive: 2 µM [activator, full curve]. With `Cc1ccc(C(=O)n2c3ccccc3c3ccccc32)cc1` the Potency was inconclusive: 8.91 µM [inhibitor, partial curve, poor fit]. With `O=C(c1cc(-c2ccc(Cl)c(Cl)c2)on1)N1CCCCCC1` the “activity change, negative = inhibition” value was inactive: 7.67% [at 46.1 µM]. In the case of `COCC(=O)Nc1ccc(-c2cn3cccnc3n2)cc1`, the “activity change, negative = inhibition” value is reported as inactive: 17.3%. With `COC(=O)Nc1ccc2c(c1)N(C(=O)CCCl)c1ccccc1S2` the Potency was inconclusive: 35.5 µM [inhibitor, single point]. In the case of `COc1ccc(-c2nc3n(c2C)CCC3)cc1`, the “activity change, negative = inhibition” value is reported as inactive: -1.56%. For `Cc1cccc(/C=N/NC(=O)c2ccc(NC(=O)c3ccccc3Cl)cc2)n1`, the “activity change, negative = inhibition” value was inactive: 17.7% [at 46.1 µM].

From PubChem BioAssay AID540256 (National Center for Advancing Translational Sciences (NCATS), 2011)
% is set by controls: 0 for no effect and ±100 for the full control effect; potency is the fitted concentration of half-maximal effect.
